No constants are given. Whether binding was seen depends on the method and setting. Binding calls can cover weak binding; strength is not graded here. For part of these data: Where a sequence is shown, tags or fusion partners need not be part of it. For part of these data: In cells and extracts the contact can be indirect. Blank lines part the entries; values can stand above or below the binder they belong to.
Key:
P2X7-SmBiT = test: split reporter; NanoBiT in live HEK293T / HEK293 cells; LgBiT and SmBiT fusions on separate (TK) vectors, 1:1; luminescence read after Nano-Glo Live cell substrate
[1] = target: StrepII-FLAG-tagged EROS (pEGBacMam-Strep-FLAG-Strep-EROS) (not stated (human in p-0042, mouse in p-0012)); test: SEC; Streptactin eluate of EROS from HEK293-F cells run on a Superose 6 column; protein (280 nm) and heme (414 nm) traces; fractions immunoblotted for gp91phox-GFP, EROS-FLAG and p22phox
[2] = target: StrepII-FLAG-tagged EROS (pEGBacMam-Strep-FLAG-Strep-EROS) (not stated (human in p-0042, mouse in p-0012)); test: co-IP; HEK293-F cells co-transfected with StrepII-FLAG-EROS, gp91phox-GFP and p22phox; membranes solubilised with 1% LMNG in 50 mM HEPES pH 7.5, 100 mM NaCl, 20% glycerol; EROS held on Streptactin resin, eluted with 5 mM desthiobiotin; Western blot for gp91phox; cells with or without succinyl acetone

binding (P2X7-SmBiT): binds
B1: LgBiT-EROS (protein, UniProt Q9BQA9 1-187)
chain: MYLQVETRTSSRLHLKRAPGIRSWSLLVGILSIGLAAAYYSGDSLGWKLFYVTGCLFVAVQNLEDWEEAIFDKSTGKVVLKTFSLYKKLLTLFRAGHDQVVVLLHDVRDVSVEEEKVRYFGKGYMVVLRLATGFSHPLTQSAVMGHRSDVEAIAKLITSFLELHCLESPTELSQSSDSEAGDPASQS

binding [1]: binds | binding [2]: binds
B2: gp91phox-GFP (protein, UniProt Q61093 1-570)
chain: MGNWAVNEGLSIFVILVWLGLNVFLFINYYKVYDDGPKYNYTRKLLGSALALARAPAACLNFNCMLILLPVCRNLLSFLRGSSACCSTRIRRQLDRNLTFHKMVAWMIALHTAIHTIAHLFNVEWCVNARVGISDRYSIALSDIGDNENEEYLNFAREKIKNPEGGLYVAVTRLAGITGIVITLCLILIITSSTKTIRRSYFEVFWYTHHLFVIFFIGLAIHGAERIVRGQTAESLEEHNLDICADKIEEWGKIKECPVPKFAGNPPMTWKWIVGPMFLYLCERLVRFWRSQQKVVITKVVTHPFKTIELQMKKKGFKMEVGQYIFVKCPKVSKLEWHPFTLTSAPEEDFFSIHIRIVGDWTEGLFNACGCDKQEFQDAWKLPKIAVDGPFGTASEDVFSYEVVMLVGAGIGVTPFASILKSVWYKYCDNATSLKLKKIYFYWLCRDTHAFEWFADLLQLLETQMQERNNANFLSYNIYLTGWDESQANHFAVHHDEEKDVITGLKQKTLYGRPNWDNEFKTIASEHPNTTIGVFLCGPEALAETLSKQSISNSESGPRGVHFIFNKENF
